Laboratory results as given in patent publication KR20230108156A.
These are yes or no findings as the source states them, for the method shown. Some results given as binding are weak or reduced against the parent protein; the word gives no strength.

Chains of the proteins cited; added tags and fusions are not shown.
UniProt P29965: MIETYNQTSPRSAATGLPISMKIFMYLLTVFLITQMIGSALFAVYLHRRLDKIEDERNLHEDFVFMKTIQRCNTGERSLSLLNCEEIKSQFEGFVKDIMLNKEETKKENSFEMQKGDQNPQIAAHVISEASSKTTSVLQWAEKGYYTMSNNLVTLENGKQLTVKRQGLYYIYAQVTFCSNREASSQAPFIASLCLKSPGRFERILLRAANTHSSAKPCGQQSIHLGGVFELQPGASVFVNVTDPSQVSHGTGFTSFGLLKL

Target: CD40L on CD40L 표면발현 CHO 세포 (CHO cells expressing CD40L on the surface, ATCC) (UniProt P29965)
Experiment: flow cytometry on CD40L CHO cells, 100 μl culture supernatant, anti-human Ig-FITC

binding: binds
B1: 14D6 키메릭 항체 (chimeric 14D6) (antibody, V domains shown)
VH: QVQLQQSGAELVKPGASVKLSCKASGYTFTRYYMFWVKQRPGQGLEWIGEINPTNGDTNFNEEFKSKATLTVDKSSSTAYMQLSSLTSEDSAVYYCTRPLGSRDAMDYWGPGTSVTVSS
VL: DIVLTQSPASLAVSLGQRATISCRASQSVSSSRYSYMHWYQQKPGQPPKLLIKYASSLESGVPARFSGSGSGTDFTLNIHPVEGEDTATYYCQHSWELPWTFGGGTKLEIK
